For at least one entry, the source does not settle the construct or the ends of the probe. At least one verdict rests on a figure or table, not on a statement of the authors.
Test system: Ku70/80 heterodimer + XRCC4-DNA ligase IV (X4L4) + APLF
Test: SAXS
Details: native protein, protein details: GST removed by PreScission protease, folded or branched DNA

CCCACCCAAAAATCAATAATCGACCCTTTCGACCCGCGC / GCGCGGGTTATTTGATTTTTGGGTGGGAAAAAAAAAA / TTTTTTTTTTCCCACCCAAAAATCAAATAATCGACCCTTTCGACCCGCGC / GCGCGGGTTATTTGATTTTTGGGTGGG [20bpDNA-10nt (stem-loop B plus complementary stem-loop)]
binding result (two-site complex): binds

CCCACCCAAAAATCAATAATCGACCCTTTCGACCCGCGC / GCGCGGGTTATTTGATTTTTGGGTGGGGTCGA [20bpDNA (stem-loop A)]
binding result (one-site complex): binds

— publication PMC5207133
